Laboratory results published in the supplement of paper PMC11348887.
Structures can show the parent of a compound that is named as a salt. Some of the results follow. Small differences around the control level are noise.

Tested on: hPSC-derived cortical neurons (WA09)
Experiment: nucleus area z-score vs screen plate; higher = larger nuclei (more mature)
Settings: 5 µM; treatment: days 7-14 after plating, readout day 21

Row | Compound | nucleus area z-score
1 | CC(=O)O[C@]1(C(C)=O)CC[C@H]2[C@@H]3C=C(Cl)C4=CC(=O)[C@@H]5C[C@@H]5[C@]4(C)[C@H]3CC[C@@]21C [Cyproterone Acetate] | -0.0968
2 | C[C@H](CCC(=O)NCCS(=O)(=O)O)[C@H]1CC[C@H]2[C@@H]3[C@@H](O)C[C@@H]4C[C@H](O)CC[C@]4(C)[C@H]3CC[C@]12C [Sodium Tauroursodeoxycholate (TUDC)] | 1.97
3 | CNC(=O)c1cc(Oc2ccc(NC(=O)Nc3ccc(Cl)c(C(F)(F)F)c3)c(F)c2)ccn1 [Regorafenib (BAY 73-4506)] | 0.953
4 | NC(=O)N1c2ccccc2CC(=O)c2ccccc21 [Oxcarbazepine] | 1.32
5 | CN1CCN(c2c(F)cc3c(=O)c(C(=O)O)cn4c3c2OCN4C)CC1 [Marbofloxacin] | 1.04
6 | O=C(O)CCc1nc(-c2ccccc2)c(-c2ccccc2)o1 [Oxaprozin] | -0.165
7 | CNC(=O)c1cccc(-c2ccc3c(N4CCOC[C@@H]4C)nc(N4CCOC[C@@H]4C)nc3n2)c1 | -4.77
8 | Cc1cnc(Nc2ccc(N3CCN(C)CC3)cc2)nc1Nc1cccc(S(=O)(=O)NC(C)(C)C)c1 | -3.47
9 | COc1cc2ncnc(Nc3cccc(Cl)c3)c2cc1OC [AG-1478 (Tyrphostin AG-1478)] | 0.325
10 | Cn1cc(CNCC2CCN(c3ncc(C(=O)NO)cn3)CC2)c2ccccc21 | -5.24
11 | Nc1nc(CC(=O)Nc2ccc(CCNC[C@H](O)c3ccccc3)cc2)cs1 [Mirabegron] | -0.133
12 | C[C@H](CCC(=O)O)[C@H]1CC[C@H]2[C@@H]3[C@@H](O)C[C@@H]4C[C@H](O)CC[C@]4(C)[C@H]3CC[C@]12C [Ursodiol] | 0.884
13 | O=C(NC(NC(=S)Nc1ccc(F)c([N+](=O)[O-])c1)C(Cl)(Cl)Cl)C(c1ccccc1)c1ccccc1 (stereo not given) | 2.5
14 | CC(=O)N[C@@H](CCC(N)=O)C(=O)O [Aceglutamide] | 0.213
15 | COc1cc2c(cc1OC)C(=O)C(CC1CCN(Cc3ccccc3)CC1)C2 (stereo not given) [Donepezil HCl] | -1.46
16 | CCCC(=O)OCOC(=O)C1=C(C)NC(C)=C(C(=O)OC)C1c1cccc(Cl)c1Cl (stereo not given) [Clevidipine Butyrate] | 0.936
17 | Nc1ccc(C(=O)NCC(=O)O)cc1 [4-Aminohippuric Acid] | 0.408
18 | C[C@H](NC(=O)C(=O)Nc1ccccc1C(C)(C)C)C(=O)N[C@@H](CC(=O)O)C(=O)COc1c(F)c(F)cc(F)c1F [Emricasan] | 2.08
19 | O=C(Nc1ccccc1)N1CCN(c2nc(-c3ccccc3)ns2)CC1 | 0.386
20 | NC(=O)[C@@H]1CCCN1C(=O)[C@H](Cc1c[nH]cn1)NC(=O)[C@@H]1CCC(=O)N1 [Protirelin] | 0.938

As entered above.
Value of O=C(O)CCc1nc(-c2ccccc2)c(-c2ccccc2)o1 [Oxaprozin] under nucleus area z-score: -0.165
Value of COc1cc2ncnc(Nc3cccc(Cl)c3)c2cc1OC [AG-1478 (Tyrphostin AG-1478)] under nucleus area z-score: 0.325
Value of CC(=O)N[C@@H](CCC(N)=O)C(=O)O [Aceglutamide] under nucleus area z-score: 0.213

The list goes on:

Row | Compound | nucleus area z-score
21 | Cc1ccc2nc(NCCN)c3ncc(C)n3c2c1 | 0.94
22 | CN1CCN(c2ccc(OC(F)(F)F)c(Nc3ncc4c(n3)-c3c(c(C(N)=O)nn3CCO)CC4)c2)CC1 | 1.12
23 | COc1ccc(-c2ccc3cc(C(=O)O)ccc3c2)cc1C12CC3CC(CC(C3)C1)C2 [Adapalene] | 0.245
24 | CC1(C)S[C@@H]2[C@H](NC(=O)C(C(=O)O)c3ccccc3)C(=O)N2[C@H]1C(=O)O (stereo not given in full) [Carbenicillin disodium] | 0.449
25 | Cc1c[nH]c(/C=C2\C(=O)Nc3ccccc32)c1CCC(=O)O | 1.57
26 | NS(=O)(=O)c1cc2c(cc1Cl)NCNS2(=O)=O [Hydrochlorothiazide] | 0.0622
27 | Cc1nc(C)c(Cl)c(O)c1Cl [Clopidol] | 0.476
28 | C=C1C(=O)O[C@@H]2/C=C(\C)CC/C=C(\C)CC[C@@H]12 [Costunolide] | 0.592
29 | C[N+]1(C)[C@@H]2C[C@@H](OC(=O)C(O)(c3cccs3)c3cccs3)C[C@H]1[C@@H]1O[C@@H]12 [Tiotropium Bromide hydrate] | 0.217
30 | COc1cc(NC(=O)c2ccccn2)ccc1Cl | 1.06
31 | Nc1[nH]cnc2ncnc1-2 [Adenine HCl] | 0.5
32 | COc1cc(C(=O)O)ccc1NC(=O)[C@@H]1N[C@@H](CC(C)(C)C)[C@](C#N)(c2ccc(Cl)cc2F)[C@H]1c1cccc(Cl)c1F [Idasanutlin (RG-7388)] | 0.695
33 | CN1CCc2c(c3ccccc3n2Cc2ccc(C(=O)NO)cc2)C1 [Tubastatin A] | -0.466
34 | O=C(O)CCC(=O)c1ccc(-c2ccccc2)cc1 [Fenbufen] | -3.83
35 | C=CCc1ccc(O)c(-c2cc(CC=C)ccc2O)c1 [Magnolol] | 0.565
36 | CC(C)C[C@H](NC(=O)CNC(=O)c1cc(Cl)ccc1Cl)B1OC(=O)C(CC(=O)O)(CC(=O)O)O1 | -14.6
37 | CC(C)(C)[N+]([O-])=Cc1ccc(S(=O)(=O)O)cc1S(=O)(=O)O | 0.483
38 | CNC(=O)c1ccccc1Nc1cc(Nc2ccc(N3CCOCC3)cc2OC)ncc1C(F)(F)F | -4.35
39 | Nc1ccc(S(N)(=O)=O)cc1 [Sulfanilamide] | 0.264
40 | CC(=O)OCOC(=O)CN(CC(=O)OCOC(C)=O)c1ccccc1OCCOc1ccccc1N(CC(=O)OCOC(C)=O)CC(=O)OCOC(C)=O | -0.18
